Two molecules from publication PMC8456587 can be followed below.

Results are given in words; binding and its absence hold for the method and conditions named. In cells and extracts the contact can be indirect. A result given as binding can be weak or reduced; the word gives no strength.

The assay addresses GST tagged L-DL (long isoform of hnRNP D-like) (mouse). The assay is described as follows: pull-down; co-affinity precipitation: GST-L-DL, GST-SC35 or GST control expressed in 293T cells; 500 μg lysate in GST-binding buffer (PBS, 0.1 mM EDTA, 0.1% Triton X-100, pH 7.4) on GST agarose beads overnight at 4 °C; washes with 0.1% SDS, 0.3% deoxycholate, 0.3% NP-40; immunoblot of endogenous partners. (A western blot detects proteins with antibodies after separation by electrophoresis.)

B1: U2AF35 (U2 auxiliary factor 35 kDa subunit) (protein, UniProt Q01081 1-240)
chain: MAEYLASIFGTEKDKVNCSFYFKIGACRHGDRCSRLHNKPTFSQTIALLNIYRNPQNSSQSADGLRCAVSDVEMQEHYDEFFEEVFTEMEEKYGEVEEMNVCDNLGDHLVGNVYVKFRREEDAEKAVIDLNNRWFNGQPIHAELSPVTDFREACCRQYEMGECTRGGFCNFMHLKPISRELRRELYGRRRKKHRSRSRSRERRSRSRDRGRGGGGGGGGGGGGRERDRRRSRDRERSGRF
For the molecule B1, the binding result is on record as “binds”.

B2: SC35 (splicing component 35 kDa) (protein, UniProt Q01130 1-221)
chain: MSYGRPPPDVEGMTSLKVDNLTYRTSPDTLRRVFEKYGRVGDVYIPRDRYTKESRGFAFVRFHDKRDAEDAMDAMDGAVLDGRELRVQMARYGRPPDSHHSRRGPPPRRYGGGGYGRRSRSPRRRRRSRSRSRSRSRSRSRSRYSRSKSRSRTRSRSRSTSKSRSARRSKSKSSSVSRSRSRSRSRSRSRSPPPVSKRESKSRSRSKSPPKSPEEEGAVSS
As to B2, the binding entry is “binds”.
